Among all 390,000 compounds or so, about 4,000 (1%) were called active. The inconclusive results got no clear call from the source; some entries with a clear call stand among them for comparison. Calls follow the shape of the dose curve; as a rule, active = well fitted inhibition curve with a large enough effect; inconclusive = small, poorly fitted or top-dose-only effect, or another doubt; inactive = no such curve, though single readings can be large or run the other way. Potencies beside an inconclusive call are fits to weak or partial responses and may not hold up.
Each compound was assayed against DNA polymerase iota (Homo sapiens) (UniProt Q9UNA4) (assay: qHTS for Inhibitors of Polymerase Iota). Conditions: Pol iota fluorescent replication assay, 10 min; series mostly up to 115 µM; activity, negative = inhibition: at the top concentration.
Outline: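 Pol iota at 10 nM preincubated 15 min with compounds at room temperature; reaction started with fluorescent substrate, 50 nM final. Fluorescence read kinetically at 0 and 10 min; buffer-only wells as negative control.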
Potency is read from the fitted curve at half-maximal effect.

Amino acid sequences for entries named in this document (tags omitted). A change or cut given only in a name is not applied to a line headed by its entry.
UniProt Q9UNA4: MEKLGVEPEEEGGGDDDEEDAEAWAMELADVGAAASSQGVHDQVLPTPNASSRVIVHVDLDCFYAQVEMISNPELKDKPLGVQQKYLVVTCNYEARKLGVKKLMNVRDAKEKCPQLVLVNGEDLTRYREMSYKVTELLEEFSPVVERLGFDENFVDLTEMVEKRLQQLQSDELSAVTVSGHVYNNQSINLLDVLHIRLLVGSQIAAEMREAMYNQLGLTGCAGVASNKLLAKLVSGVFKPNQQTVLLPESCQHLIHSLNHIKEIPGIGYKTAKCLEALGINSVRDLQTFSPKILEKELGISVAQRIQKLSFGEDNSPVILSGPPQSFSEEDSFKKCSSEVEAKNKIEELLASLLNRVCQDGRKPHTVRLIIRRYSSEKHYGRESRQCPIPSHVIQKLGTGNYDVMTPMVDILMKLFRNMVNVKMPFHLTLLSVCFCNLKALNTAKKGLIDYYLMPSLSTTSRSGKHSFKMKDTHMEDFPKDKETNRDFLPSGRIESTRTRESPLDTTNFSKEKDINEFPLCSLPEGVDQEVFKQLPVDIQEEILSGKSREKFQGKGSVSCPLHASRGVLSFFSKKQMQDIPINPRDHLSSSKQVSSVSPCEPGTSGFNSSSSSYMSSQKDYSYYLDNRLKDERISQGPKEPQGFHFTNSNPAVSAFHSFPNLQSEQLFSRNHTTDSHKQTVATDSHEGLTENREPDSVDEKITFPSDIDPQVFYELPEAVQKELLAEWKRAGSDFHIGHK

SMILES | Potency | activity, negative = inhibition
COc1cccc(OC)c1C(=O)Nc1ccncc1 | inconclusive: 28.2 µM [inhibitor, single point] | 
COCCNC(=O)/C(C#N)=C/c1cn(CC(=O)NCc2ccco2)c2ccccc12 | inconclusive: 50.1 µM [inhibitor, partial curve, poor fit] | 
c1ccc2c(Cn3ccnc3)c[nH]c2c1 | inconclusive: 100 µM [inhibitor, single point] | 
COc1ccc(NCCNc2ccc(OC)cc2)cc1 | inconclusive: 39.8 µM [inhibitor, single point] | 
CC1(C)Cc2c(sc3nc(-c4ccccc4)n(N)c(=O)c23)CO1 | inconclusive: 100 µM [inhibitor, partial curve, poor fit] | 
CC1CN(c2ccc([N+](=O)[O-])cc2Cl)CCN1S(C)(=O)=O (centres undefined) | inconclusive: 79.4 µM [inhibitor, single point] | 
Cc1ccccc1OCC(=O)Nc1cccc2nsnc12 | inconclusive: 20 µM [inhibitor, partial curve, poor fit] | 
Cc1ccc(NC(=O)CSc2nnc(-c3nnn(-c4ccc(F)cc4)c3C)o2)cc1Br |  | inactive: -28.7%
COc1ccc(C(CCN(Cc2ccc(OC)c(OC)c2)C(C)=O)c2ccccc2)cc1 (centres undefined) | inconclusive: 39.8 µM [inhibitor, full curve, poor fit] | 
COc1cccc(-n2sc3c(c2=S)-c2cc(OC)ccc2NC3(C)C)c1 | inconclusive: 4.47 µM [inhibitor, full curve, poor fit] | 
CCN(CC)CCCNc1ncnc2ccccc12 |  | inactive: 20.8%
Cc1ccc(-n2nc3c(N4CCC(C(=O)NCc5ccc(C)o5)CC4)nnc(C)c3c2C)cc1 | inconclusive: 39.8 µM [inhibitor, single point] | 
CCOc1ccc(NS(=O)(=O)c2ccc3[nH]cc(C(=O)N(CC)CC)c(=O)c3c2)cc1 | inconclusive: 3.16 µM [inhibitor, full curve, poor fit] | 
COc1cc2nc(N3CCCCC3)nc(NC(C)C)c2cc1OC |  | inactive: 30.7%
CCOc1ccccc1CNC(=O)CCc1c(C)nn(-c2ccc(N3CCCCC3)nn2)c1C |  | inactive: -25%
CN(C)CCNC(=O)C1CCN(c2ncnc3c2nc2n3CCCCC2)CC1 |  | inactive: 12.3%
O=C(CNC(=O)Cc1ccccc1)NCC(=O)OCc1ccc(C(=O)c2ccccc2)cc1 | inconclusive: 39.8 µM [inhibitor, single point] | 
Cc1ccccc1-c1ccnc2[nH]n(-c3ccccc3)c(=O)c12 | inconclusive: 89.1 µM [inhibitor, single point] | 
Cc1nonc1NC(=O)CSc1nc2ccccc2[nH]1 | inconclusive: 50.1 µM [inhibitor, partial curve] | 

Part of the list above in order of number of heavy atoms, low to high.
SMILES | Potency | activity, negative = inhibition
Cc1nonc1NC(=O)CSc1nc2ccccc2[nH]1 | inconclusive: 50.1 µM [inhibitor, partial curve] | 
Cc1ccccc1OCC(=O)Nc1cccc2nsnc12 | inconclusive: 20 µM [inhibitor, partial curve, poor fit] | 
CC1(C)Cc2c(sc3nc(-c4ccccc4)n(N)c(=O)c23)CO1 | inconclusive: 100 µM [inhibitor, partial curve, poor fit] | 
